This note sets out measurements from doi:10.1101/2020.06.29.177584.

Chains of the proteins cited; added tags and fusions are not shown. Lines headed by an entry give the natural chain unless they say otherwise; changes in a name come on top. Residues count along the entry.
UniProt Q3URK3, whole entry: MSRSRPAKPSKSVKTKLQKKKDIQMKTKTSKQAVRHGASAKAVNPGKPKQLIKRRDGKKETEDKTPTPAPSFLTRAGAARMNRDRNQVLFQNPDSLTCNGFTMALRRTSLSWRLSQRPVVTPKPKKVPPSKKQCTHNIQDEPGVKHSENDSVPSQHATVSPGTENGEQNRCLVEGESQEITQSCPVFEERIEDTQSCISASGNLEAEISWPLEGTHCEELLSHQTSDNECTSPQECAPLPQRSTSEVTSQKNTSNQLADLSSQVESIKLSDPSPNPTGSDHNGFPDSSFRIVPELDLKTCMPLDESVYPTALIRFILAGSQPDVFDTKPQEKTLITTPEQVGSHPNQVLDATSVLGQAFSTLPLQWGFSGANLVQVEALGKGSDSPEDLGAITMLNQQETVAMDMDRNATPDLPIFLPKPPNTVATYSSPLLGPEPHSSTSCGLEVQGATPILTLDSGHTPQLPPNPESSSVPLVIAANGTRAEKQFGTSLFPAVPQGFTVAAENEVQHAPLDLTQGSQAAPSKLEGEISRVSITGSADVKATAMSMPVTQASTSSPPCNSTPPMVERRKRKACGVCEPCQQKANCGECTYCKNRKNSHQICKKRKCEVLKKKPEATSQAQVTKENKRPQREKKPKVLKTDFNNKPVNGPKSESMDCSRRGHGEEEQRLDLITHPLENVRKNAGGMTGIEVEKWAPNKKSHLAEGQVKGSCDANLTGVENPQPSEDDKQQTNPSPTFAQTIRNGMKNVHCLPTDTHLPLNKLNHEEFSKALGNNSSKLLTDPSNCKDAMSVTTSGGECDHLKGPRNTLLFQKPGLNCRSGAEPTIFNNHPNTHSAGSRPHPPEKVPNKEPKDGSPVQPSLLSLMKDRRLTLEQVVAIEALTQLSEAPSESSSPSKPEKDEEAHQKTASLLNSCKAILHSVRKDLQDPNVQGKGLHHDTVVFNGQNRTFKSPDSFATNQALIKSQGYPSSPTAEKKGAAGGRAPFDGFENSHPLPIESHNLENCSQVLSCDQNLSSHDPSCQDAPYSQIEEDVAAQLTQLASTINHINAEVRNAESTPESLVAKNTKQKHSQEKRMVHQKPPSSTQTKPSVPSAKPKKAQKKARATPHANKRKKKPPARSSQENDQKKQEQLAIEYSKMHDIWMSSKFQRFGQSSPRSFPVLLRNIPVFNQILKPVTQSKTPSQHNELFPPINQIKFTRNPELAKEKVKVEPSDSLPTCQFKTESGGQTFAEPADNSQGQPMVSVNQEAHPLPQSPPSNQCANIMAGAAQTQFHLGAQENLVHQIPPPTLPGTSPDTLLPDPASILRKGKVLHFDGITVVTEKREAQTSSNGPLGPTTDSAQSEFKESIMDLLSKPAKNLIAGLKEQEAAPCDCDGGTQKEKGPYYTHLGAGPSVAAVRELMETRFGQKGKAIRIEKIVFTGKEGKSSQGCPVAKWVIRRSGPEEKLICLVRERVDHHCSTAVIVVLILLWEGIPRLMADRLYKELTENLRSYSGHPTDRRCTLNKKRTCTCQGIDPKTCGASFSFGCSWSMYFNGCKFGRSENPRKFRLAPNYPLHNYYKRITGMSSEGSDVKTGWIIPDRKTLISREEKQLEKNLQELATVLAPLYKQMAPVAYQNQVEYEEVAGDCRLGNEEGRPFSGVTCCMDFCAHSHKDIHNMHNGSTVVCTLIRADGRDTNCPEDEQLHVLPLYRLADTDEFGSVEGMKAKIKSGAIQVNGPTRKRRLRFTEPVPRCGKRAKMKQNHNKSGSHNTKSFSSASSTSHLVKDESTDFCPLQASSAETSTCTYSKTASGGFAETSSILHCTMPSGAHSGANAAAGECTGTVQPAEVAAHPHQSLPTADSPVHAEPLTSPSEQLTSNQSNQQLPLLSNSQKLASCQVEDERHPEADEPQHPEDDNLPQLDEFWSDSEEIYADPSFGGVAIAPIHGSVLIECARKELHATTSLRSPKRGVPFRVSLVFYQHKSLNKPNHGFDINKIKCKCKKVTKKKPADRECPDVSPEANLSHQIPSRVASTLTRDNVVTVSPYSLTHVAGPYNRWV
UniProt Q3URK3, 1-108: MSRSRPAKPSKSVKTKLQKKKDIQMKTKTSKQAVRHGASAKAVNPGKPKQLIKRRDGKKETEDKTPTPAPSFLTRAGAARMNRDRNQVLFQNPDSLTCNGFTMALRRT
UniProt Q3URK3, 1-1379: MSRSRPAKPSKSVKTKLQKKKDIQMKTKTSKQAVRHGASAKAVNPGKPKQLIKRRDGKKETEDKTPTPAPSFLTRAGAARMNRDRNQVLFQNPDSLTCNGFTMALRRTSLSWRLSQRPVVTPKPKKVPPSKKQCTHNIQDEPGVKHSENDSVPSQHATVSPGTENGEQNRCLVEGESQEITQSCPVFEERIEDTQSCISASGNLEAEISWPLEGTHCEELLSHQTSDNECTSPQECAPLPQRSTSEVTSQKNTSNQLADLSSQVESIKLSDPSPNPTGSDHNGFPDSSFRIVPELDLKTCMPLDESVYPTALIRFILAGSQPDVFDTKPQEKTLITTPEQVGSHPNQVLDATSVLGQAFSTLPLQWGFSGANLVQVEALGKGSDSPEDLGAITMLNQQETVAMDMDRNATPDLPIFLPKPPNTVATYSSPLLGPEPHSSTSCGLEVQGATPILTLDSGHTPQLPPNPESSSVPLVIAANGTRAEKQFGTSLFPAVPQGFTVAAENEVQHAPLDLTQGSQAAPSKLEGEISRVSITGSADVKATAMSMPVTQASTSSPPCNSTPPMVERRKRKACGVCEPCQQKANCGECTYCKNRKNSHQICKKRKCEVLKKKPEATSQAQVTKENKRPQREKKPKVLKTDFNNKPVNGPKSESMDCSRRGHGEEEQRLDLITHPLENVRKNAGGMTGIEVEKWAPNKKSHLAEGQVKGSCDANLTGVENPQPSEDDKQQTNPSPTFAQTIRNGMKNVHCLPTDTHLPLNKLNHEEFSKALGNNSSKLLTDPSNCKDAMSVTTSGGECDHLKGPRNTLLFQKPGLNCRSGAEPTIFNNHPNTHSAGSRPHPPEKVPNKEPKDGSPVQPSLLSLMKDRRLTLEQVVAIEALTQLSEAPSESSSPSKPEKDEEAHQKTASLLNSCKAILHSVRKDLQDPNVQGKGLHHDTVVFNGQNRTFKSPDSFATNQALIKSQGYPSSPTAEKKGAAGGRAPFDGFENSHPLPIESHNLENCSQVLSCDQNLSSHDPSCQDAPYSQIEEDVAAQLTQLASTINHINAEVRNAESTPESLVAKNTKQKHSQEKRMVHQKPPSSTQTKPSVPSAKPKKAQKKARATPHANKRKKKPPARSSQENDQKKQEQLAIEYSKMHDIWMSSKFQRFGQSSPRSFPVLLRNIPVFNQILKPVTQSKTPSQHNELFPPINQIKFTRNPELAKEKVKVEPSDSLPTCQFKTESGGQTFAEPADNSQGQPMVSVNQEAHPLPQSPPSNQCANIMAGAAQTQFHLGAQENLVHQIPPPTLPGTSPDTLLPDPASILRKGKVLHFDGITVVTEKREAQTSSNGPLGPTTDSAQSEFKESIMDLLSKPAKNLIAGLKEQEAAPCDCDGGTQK
UniProt Q3URK3, 1-1547: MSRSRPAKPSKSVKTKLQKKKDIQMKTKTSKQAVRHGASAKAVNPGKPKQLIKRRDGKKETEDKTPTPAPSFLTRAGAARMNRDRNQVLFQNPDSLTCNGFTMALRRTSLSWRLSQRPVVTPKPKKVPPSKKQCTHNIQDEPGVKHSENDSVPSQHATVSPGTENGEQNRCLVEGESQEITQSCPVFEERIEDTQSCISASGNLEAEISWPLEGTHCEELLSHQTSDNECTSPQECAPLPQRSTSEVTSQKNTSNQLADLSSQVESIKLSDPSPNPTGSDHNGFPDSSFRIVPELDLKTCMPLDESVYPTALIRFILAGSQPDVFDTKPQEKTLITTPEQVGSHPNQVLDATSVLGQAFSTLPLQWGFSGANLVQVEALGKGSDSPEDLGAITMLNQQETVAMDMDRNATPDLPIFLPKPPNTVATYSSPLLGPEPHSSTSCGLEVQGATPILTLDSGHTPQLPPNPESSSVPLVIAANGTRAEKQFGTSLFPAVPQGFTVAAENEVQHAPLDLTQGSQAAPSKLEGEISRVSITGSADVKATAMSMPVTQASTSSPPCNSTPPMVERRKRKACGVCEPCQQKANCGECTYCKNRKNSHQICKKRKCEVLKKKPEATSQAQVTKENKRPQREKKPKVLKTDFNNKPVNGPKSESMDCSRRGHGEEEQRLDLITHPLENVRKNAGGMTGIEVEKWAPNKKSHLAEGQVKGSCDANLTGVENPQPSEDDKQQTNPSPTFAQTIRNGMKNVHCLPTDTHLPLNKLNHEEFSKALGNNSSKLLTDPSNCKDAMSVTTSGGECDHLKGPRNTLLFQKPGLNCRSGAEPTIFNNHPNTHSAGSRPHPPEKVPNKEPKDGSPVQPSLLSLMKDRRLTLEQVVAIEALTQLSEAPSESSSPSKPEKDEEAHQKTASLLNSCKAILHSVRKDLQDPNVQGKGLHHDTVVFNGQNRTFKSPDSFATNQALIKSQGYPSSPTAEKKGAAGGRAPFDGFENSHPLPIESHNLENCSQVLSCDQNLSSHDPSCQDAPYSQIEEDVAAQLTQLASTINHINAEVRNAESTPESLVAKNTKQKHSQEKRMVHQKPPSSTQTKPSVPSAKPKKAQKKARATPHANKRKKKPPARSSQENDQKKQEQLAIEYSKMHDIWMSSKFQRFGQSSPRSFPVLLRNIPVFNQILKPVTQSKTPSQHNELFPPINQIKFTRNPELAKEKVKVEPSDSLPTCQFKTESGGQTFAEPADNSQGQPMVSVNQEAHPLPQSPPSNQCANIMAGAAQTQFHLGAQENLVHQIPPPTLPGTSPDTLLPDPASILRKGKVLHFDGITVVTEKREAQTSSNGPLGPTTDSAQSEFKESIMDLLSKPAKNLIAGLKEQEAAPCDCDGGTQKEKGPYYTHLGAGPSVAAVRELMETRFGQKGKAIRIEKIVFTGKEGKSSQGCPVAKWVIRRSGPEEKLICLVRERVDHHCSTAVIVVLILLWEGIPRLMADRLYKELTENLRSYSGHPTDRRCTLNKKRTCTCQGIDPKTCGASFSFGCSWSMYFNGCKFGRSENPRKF
UniProt Q3URK3, 734-1131: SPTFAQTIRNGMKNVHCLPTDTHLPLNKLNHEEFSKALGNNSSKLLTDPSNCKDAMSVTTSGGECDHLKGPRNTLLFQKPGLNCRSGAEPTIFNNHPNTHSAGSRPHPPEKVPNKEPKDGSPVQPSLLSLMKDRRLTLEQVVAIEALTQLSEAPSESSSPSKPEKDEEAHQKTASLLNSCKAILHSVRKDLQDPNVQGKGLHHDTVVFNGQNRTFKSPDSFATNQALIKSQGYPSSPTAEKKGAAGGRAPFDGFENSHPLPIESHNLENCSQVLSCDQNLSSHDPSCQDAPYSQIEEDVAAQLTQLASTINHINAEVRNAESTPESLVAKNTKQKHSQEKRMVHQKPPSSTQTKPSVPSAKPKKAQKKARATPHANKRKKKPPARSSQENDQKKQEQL

Test in all cases: co-IP
For experiment [1], the target named is (Flag)3-TET1 1-108 (mouse) (UniProt Q3URK3).
The target of experiment [2] is (Flag)3-TET1 1-1379 (WT) (mouse) (UniProt Q3URK3).
Experiment [3] has as its target (Flag)3-TET1 1-1379 Δ1+2 (mouse) (UniProt Q3URK3).
Experiment [4] concerns the target (Flag)3-TET1 1-1472 Δ1+2 (mouse) (UniProt Q3URK3).
In experiment [5] the target is (Flag)3-TET1 1-1494 Δ1+2 (mouse) (UniProt Q3URK3).
Experiment [6] has as its target (Flag)3-TET1 1-1547 (WT) (mouse) (UniProt Q3URK3).
The target of experiment [7] is (Flag)3-TET1 734-1131 (mouse) (UniProt Q3URK3).
For experiment [8], the target named is (Flag)3-TET1 734-2039 (mouse) (UniProt Q3URK3).
The target of experiment [9] is (Flag)3-TET1(1-1547) Δ109-120 + Δ1132-1202 (Δ1+2) (mouse) (UniProt Q3URK3).
Experiment [10] addresses (Flag)3-TET1, full length (mouse) (UniProt Q3URK3).
Experiment [11] has as its target Full-length (Flag)3-TET1 Δ109-120 (Δ1) (mouse) (UniProt Q3URK3).
The target of experiment [12] is Full-length (Flag)3-TET1 Δ1132-1202 (Δ2) (mouse) (UniProt Q3URK3).

Results are given in words; binding and its absence hold for the method and conditions named. In cells and extracts the contact can be indirect. Some binding calls cover weakened binding; strength is not graded here. Where a sequence is shown, tags or fusion partners need not be part of it.

B1: (HA)3-NANOG (protein, UniProt Q80Z64 1-305)
chain: MSVGLPGPHSLPSSEEASNSGNASSMPAVFHPENYSCLQGSATEMLCTEAASPRPSSEDLPLQGSPDSSTSPKQKLSSPEADKGPEEEENKVLARKQKMRTVFSQAQLCALKDRFQKQKYLSLQQMQELSSILNLSYKQVKTWFQNQRMKCKRWQKNQWLKTSNGLIQKGSAPVEYPSIHCSYPQGYLVNASGSLSMWGSQTWTNPTWSSQTWTNPTWNNQTWTNPTWSSQAWTAQSWNGQPWNAAPLHNFGEDFLQPYVQLQQNFSASDLEVNLEATRESHAHFSTPQALELFLNYSVTPPGEI
Consider B1, for which the binding entry in experiment [1] is “no binding”; in [2], “binds weakly”; in experiment [3], “no binding”; in experiment [4], “no binding”; in [5] it was “no binding”; in experiment [6], “binds”. The binding entry is on record as “no binding” in [7]; “binds” in [8]; “binds” in [9]; “binds” in experiment [10]; “binds” in [11]; “binds” in experiment [12].
